Measurements from publication PMC12048343, “Discovery of a small molecule secreted clusterin enhancer that improves memory in Alzheimer’s disease mice” (npj Drug Discovery, 2025).
“Also recorded” adds a separate entry of the source.

Test system: sCLU secreted from human U-87 MG glioblastoma cells
Test: Human sCLU AlphaLISA on supernatant of U-87 MG cells (HTS, re-test, dose response)
Type: cell-based
Description: Cell culture supernatant (2 μL) was added to a 384-well proxy plate preloaded with AlphaLISA HiBlock buffer (2 µL, 1X, CAT#AL004C, Perkin Elmer). Then an anti-sCLU antibody mixture (2 µL, mAb J84, biotinylated (10 nM, Cat# 3717-6-1000, Mabtech) and mAb CLU aa 22-227 (Cat#AF7084, R&D Systems), Acceptor bead conjugated (50 µg/mL, Cat#6772001, Perkin Elmer)) was added and incubated at room temperature for 1 hour. AlphaScreen Streptavidin Donor beads (2 µL, Cat#6760002S, Perkin Elmer) were added, incubated for an additional 30 min in the dark, and the plate was read in an Envision plate reader.
Human glioblastoma U-87 MG cells were proliferated in EMEM with 10% FBS and 1% P/S (complete medium) in 10 cm dishes until approximately 90% confluent. Following trypsinization, a suspension of 2 × 10^5 cells/mL (25 µL) were added to 384-well plates containing complete medium (25 µL) and library compounds from 9 plates (5 µM). After incubation for 30 h at 37 °C and 5% CO2, 2 μL of cell culture supernatant were analyzed via human sCLU AlphaLISA as described above. […]
Human glioblastoma U-87 MG cells were proliferated in EMEM with 10% FBS and 1% P/S (complete medium) in 10 cm dishes until approximately 90% confluent. […] After incubation for 30 hours at 37 °C and 5% CO2, 2 μL of cell culture supernatant were analyzed via human sCLU AlphaLISA as described above.

EC50 (Homo sapiens, dose response, text and figures): 2.04 µM
Structure (SMILES): O=C(CCCCCCC(=O)Nc1ccccc1)NO [vorinostat]
sCLU levels relative to DMSO control (5 µM): increased sCLU; also recorded: significantly increase sCLU levels
